Measurements: publication PMC4650537
No constants are given. Whether binding was seen depends on the method and setting. Binding seen in cells or lysates may run through a third protein. Some results given as binding are weak or reduced against the parent protein; the word gives no strength.

Amino acid sequences for entries named in this document (tags omitted).
UniProt Q14790: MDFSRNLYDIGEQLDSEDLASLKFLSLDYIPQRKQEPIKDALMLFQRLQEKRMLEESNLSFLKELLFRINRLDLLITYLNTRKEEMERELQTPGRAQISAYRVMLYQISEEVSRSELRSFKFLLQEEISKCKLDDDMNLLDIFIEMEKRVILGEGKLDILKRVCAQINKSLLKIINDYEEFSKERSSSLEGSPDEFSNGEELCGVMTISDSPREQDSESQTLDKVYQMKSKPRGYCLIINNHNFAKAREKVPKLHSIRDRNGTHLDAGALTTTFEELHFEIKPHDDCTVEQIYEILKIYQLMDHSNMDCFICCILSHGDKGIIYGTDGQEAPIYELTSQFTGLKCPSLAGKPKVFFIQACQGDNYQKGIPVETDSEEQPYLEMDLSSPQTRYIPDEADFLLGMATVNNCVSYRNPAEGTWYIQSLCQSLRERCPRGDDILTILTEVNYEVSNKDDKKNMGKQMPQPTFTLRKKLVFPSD
UniProt Q13546: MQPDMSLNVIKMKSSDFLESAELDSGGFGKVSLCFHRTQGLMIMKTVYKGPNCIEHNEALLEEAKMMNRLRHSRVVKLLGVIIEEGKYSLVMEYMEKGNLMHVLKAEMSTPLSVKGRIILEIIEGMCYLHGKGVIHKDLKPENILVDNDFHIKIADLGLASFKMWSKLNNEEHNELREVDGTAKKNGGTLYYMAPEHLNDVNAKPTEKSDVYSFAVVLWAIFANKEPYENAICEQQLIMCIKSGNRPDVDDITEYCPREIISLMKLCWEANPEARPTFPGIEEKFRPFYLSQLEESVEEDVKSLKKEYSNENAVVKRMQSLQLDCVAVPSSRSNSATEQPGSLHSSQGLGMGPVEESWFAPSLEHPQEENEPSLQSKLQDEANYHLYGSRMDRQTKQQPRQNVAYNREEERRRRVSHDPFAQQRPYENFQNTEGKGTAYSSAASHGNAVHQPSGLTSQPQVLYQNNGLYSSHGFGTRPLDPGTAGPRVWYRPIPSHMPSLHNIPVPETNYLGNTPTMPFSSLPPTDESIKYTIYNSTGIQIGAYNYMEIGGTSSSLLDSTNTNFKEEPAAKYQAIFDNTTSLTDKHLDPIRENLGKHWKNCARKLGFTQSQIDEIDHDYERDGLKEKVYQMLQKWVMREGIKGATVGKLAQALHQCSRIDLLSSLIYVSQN
UniProt Q13158: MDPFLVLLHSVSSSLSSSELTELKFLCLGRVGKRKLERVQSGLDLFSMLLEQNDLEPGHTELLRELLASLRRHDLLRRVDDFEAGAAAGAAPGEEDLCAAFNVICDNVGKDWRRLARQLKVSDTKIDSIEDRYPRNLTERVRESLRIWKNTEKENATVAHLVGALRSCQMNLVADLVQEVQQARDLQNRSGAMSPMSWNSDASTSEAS

Tests used:
[1] = target: T1, caspase-3 (human (endogenous in HCT116)) (UniProt P42574); assay: co-IP; IP with caspase-3 antibody (IP-Cas-3), cells treated with DMSO or 5-FU (50 μg/ml) in the presence of z-VAD (20 μM)
T1 sequence: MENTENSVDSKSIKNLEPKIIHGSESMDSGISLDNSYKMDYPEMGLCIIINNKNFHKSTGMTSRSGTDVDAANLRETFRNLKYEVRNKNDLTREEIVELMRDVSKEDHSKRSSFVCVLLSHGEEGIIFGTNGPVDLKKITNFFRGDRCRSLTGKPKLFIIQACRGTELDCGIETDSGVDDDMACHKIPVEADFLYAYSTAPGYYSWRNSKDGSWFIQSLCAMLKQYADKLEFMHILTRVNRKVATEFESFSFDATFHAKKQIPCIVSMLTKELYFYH

[2] = target: T1, caspase-3 (human (endogenous in HCT116)); assay: co-IP; IP with caspase-3 antibody (IP-Cas-3) from lysates of HCT116 WT or C3KO cells treated with DMSO or 5-FU (50 μg/ml) for 24 h, without z-VAD

Substance | binding [1] | binding [2]
pro-caspase-8 (from UniProt Q14790 1-479) | no binding (condition: with z-VAD (20 μM)) | 
receptor (TNFRSF)-interacting serine-threonine kinase 1 (from UniProt Q13546 1-671) | no binding (condition: with z-VAD (20 μM)) | binds
Fas (TNFRSF6)-associated via death domain (from UniProt Q13158 1-208) | no binding (condition: with z-VAD (20 μM)) | binds
